# Experimental data as given in the supplement of paper PMC11732987, “Enantioselective OTUD7B fragment discovery through chemoproteomics screening and high-throughput optimisation” (Communications Chemistry, 2025).
# Protein sequences, listed by entry. Tags and fused reporters are not part of them. Lines headed by an entry give the natural chain unless they say otherwise; changes in a name come on top.
# UniProt O75165: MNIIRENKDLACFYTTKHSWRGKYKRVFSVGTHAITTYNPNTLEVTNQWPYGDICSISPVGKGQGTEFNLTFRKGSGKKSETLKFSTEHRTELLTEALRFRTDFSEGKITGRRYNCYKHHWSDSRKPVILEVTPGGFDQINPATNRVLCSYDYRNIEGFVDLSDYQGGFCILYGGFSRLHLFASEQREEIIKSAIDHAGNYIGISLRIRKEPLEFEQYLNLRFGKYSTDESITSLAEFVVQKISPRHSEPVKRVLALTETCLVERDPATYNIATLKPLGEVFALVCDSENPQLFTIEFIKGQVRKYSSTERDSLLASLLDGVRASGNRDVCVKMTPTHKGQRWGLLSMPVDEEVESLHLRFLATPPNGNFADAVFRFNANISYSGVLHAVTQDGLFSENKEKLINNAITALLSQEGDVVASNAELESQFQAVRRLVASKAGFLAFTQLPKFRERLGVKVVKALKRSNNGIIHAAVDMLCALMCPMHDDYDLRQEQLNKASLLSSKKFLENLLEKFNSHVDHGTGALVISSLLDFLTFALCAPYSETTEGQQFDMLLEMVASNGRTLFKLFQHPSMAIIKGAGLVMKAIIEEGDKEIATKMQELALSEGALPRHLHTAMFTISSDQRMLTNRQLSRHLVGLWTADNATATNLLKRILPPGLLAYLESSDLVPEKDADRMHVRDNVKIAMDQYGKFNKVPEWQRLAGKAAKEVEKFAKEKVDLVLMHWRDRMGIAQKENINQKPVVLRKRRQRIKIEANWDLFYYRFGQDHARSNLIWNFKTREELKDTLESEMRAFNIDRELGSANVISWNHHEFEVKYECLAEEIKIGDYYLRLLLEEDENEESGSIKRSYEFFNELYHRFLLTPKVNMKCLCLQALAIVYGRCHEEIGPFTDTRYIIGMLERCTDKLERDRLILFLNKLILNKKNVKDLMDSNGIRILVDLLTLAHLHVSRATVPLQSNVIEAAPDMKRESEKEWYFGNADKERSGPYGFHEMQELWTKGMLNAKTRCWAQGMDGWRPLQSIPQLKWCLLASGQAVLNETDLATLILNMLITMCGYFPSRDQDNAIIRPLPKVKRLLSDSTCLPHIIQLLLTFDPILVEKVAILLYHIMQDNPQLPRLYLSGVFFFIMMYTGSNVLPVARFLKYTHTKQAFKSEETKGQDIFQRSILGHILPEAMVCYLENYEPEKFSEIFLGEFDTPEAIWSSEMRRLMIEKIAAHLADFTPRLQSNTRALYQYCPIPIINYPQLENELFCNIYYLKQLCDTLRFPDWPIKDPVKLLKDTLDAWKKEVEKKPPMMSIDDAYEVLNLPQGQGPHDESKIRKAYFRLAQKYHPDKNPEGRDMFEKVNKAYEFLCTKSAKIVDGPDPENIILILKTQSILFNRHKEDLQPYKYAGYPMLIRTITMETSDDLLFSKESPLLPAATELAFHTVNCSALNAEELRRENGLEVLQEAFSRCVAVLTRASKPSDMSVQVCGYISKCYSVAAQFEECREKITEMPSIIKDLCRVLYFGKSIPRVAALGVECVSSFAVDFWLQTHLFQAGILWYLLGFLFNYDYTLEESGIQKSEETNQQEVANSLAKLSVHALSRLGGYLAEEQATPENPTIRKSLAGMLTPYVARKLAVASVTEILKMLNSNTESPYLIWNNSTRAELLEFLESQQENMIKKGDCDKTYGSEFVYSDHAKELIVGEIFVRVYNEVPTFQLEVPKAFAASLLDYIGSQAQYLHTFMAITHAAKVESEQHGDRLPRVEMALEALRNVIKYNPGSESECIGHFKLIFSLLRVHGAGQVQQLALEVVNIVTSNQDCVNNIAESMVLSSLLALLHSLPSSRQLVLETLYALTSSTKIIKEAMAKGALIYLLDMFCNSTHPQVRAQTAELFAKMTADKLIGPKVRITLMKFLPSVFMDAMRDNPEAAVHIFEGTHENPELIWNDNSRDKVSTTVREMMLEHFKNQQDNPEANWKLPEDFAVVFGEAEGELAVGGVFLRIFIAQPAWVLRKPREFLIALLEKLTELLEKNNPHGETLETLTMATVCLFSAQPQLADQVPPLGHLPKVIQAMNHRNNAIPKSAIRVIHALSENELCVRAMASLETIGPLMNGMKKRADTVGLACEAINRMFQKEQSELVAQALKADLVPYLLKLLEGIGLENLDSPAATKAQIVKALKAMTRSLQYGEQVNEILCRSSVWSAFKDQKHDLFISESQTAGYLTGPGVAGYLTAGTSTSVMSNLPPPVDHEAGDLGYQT
# UniProt Q96KC8: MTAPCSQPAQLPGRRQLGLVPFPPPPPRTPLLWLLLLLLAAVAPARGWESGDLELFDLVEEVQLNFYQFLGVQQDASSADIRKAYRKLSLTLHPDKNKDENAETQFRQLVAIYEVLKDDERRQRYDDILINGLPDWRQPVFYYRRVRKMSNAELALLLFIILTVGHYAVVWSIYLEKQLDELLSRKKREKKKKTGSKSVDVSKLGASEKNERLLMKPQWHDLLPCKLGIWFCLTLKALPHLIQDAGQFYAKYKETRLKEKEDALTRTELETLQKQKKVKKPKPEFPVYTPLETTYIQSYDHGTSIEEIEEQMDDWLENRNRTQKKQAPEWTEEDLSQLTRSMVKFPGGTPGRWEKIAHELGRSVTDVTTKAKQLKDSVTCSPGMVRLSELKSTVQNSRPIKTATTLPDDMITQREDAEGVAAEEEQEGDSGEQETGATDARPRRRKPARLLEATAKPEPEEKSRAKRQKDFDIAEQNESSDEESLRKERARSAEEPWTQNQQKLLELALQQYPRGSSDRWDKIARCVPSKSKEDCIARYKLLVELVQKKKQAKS
# UniProt Q6XZF7: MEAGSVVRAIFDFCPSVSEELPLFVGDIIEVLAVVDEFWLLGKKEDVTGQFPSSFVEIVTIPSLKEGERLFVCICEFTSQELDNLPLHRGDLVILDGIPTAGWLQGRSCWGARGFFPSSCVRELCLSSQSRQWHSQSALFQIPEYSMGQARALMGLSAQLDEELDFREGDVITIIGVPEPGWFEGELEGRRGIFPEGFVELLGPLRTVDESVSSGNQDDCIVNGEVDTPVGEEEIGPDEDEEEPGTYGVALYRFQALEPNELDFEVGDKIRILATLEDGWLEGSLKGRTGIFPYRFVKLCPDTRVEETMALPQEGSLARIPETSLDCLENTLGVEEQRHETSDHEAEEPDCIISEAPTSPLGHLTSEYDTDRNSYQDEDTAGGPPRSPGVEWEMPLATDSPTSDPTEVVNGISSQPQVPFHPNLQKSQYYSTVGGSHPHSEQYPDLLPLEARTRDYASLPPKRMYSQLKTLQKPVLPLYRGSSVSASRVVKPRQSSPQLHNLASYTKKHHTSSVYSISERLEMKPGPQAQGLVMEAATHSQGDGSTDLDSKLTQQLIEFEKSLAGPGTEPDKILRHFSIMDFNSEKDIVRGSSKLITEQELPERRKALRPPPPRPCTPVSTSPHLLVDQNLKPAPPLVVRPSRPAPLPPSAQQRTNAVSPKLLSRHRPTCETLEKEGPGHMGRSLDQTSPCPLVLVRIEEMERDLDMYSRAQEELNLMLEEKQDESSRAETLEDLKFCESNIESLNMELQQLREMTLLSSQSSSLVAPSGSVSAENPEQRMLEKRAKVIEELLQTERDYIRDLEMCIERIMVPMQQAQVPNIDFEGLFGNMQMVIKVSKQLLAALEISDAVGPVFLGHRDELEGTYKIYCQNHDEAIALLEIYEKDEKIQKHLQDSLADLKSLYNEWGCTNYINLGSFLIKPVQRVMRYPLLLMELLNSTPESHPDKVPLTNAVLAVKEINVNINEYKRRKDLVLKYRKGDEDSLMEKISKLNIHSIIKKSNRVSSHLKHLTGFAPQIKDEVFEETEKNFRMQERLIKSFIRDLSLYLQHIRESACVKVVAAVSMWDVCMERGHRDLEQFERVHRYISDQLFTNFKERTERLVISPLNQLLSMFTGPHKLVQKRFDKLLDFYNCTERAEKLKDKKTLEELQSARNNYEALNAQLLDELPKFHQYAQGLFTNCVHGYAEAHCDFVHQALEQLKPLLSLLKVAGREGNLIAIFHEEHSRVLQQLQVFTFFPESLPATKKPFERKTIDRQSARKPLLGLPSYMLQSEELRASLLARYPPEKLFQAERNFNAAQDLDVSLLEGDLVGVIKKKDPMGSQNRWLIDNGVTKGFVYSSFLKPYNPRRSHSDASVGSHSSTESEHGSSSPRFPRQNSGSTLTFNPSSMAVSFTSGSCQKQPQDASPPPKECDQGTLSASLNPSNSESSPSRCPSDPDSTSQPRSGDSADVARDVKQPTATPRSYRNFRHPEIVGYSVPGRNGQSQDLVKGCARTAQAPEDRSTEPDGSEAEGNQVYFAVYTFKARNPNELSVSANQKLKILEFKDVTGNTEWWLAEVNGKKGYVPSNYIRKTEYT
# UniProt Q5VZ89: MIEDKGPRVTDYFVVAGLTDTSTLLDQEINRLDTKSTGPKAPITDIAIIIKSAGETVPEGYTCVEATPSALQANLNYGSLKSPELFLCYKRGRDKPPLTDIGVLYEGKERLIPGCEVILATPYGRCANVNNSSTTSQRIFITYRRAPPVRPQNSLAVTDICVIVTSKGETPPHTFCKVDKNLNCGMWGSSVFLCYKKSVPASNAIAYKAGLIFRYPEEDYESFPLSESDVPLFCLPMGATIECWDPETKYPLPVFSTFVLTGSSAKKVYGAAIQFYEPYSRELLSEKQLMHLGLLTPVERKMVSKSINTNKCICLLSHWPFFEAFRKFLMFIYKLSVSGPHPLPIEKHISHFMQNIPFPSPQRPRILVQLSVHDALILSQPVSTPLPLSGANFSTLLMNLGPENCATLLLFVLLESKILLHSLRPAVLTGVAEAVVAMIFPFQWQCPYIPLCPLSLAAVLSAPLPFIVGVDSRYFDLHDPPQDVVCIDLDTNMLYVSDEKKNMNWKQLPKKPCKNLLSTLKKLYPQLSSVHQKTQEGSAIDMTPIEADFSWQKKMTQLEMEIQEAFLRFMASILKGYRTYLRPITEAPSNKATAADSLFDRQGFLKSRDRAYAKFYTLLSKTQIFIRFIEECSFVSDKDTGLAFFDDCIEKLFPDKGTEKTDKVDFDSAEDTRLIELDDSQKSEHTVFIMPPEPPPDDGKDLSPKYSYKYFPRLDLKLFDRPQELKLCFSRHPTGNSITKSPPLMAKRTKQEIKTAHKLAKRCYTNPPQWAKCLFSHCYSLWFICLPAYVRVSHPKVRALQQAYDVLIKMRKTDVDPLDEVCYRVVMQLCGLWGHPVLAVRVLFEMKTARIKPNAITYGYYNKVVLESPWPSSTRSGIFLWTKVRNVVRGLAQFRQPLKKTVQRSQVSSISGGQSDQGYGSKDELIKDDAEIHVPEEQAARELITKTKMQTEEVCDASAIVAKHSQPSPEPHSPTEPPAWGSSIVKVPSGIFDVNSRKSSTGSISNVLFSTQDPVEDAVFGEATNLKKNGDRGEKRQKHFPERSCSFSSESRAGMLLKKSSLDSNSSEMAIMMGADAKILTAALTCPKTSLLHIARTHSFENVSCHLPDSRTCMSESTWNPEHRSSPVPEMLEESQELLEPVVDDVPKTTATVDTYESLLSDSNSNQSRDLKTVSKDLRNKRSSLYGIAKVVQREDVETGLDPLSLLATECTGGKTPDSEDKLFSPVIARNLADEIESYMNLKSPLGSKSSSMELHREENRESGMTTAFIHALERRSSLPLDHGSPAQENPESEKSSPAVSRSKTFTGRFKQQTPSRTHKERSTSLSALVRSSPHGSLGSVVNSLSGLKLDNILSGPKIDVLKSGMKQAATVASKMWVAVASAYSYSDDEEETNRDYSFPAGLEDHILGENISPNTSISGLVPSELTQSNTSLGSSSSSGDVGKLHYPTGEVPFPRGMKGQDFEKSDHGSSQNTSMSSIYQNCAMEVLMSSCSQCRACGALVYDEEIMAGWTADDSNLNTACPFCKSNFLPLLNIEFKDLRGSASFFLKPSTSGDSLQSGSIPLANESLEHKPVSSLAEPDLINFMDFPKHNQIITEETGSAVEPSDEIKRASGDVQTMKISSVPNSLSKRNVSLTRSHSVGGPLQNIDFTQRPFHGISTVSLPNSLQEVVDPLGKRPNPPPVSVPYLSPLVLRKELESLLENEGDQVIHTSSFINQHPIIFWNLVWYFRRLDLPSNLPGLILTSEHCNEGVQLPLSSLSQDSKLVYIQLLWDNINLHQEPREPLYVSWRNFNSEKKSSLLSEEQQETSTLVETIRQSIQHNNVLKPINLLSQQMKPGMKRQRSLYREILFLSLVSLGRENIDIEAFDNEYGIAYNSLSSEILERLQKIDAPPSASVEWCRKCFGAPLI
# UniProt Q9BU89: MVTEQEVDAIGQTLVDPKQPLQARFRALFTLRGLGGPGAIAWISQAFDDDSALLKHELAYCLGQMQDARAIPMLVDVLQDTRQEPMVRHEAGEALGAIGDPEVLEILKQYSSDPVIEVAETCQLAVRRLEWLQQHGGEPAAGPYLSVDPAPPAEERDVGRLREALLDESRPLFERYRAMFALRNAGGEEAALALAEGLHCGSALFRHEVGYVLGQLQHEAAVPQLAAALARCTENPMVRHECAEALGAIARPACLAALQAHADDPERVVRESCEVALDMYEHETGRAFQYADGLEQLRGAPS
# Some of the results follow. The data scatter; read single values as rough.
# How the values were obtained:
# [1] = compound: ClCC(=O)N[C@@H]1CCCc2ccccc12; experiment: log2 mean competition ratio of IA-DTB cysteine labelling (DMSO/compound) (log2 ratio); higher = stronger cysteine engagement by compound; conditions: treatment time: 4 h, cell line lysate: HEK293T
# Procedure: (§1)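 IA-DTB competitive cysteine chemoproteomics in HEK293T RIPA lysate. Lysates were treated with compound 29 or 30 at 50 or 200 µM for 4 h, then IA-DTB (500 µM, 1 h), trypsin-digested, NeutrAvidin-enriched and analysed by diaPASEF. Competition ratio = intensity DMSO / intensity compound (n=4 treated, n=64 DMSO); binding: mean log2 CR ≥ 1 and p ≤ 0.05 plus QC filters. Target is the cysteine site.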
# [2] = compound: ClCC(=O)N[C@H]1CCCc2ccccc12; experiment: as above; conditions: treatment time: 4 h, cell line lysate: HEK293T
# Procedure: as §1
Target,log2 mean competition ratio ([1]; 50 µM),log2 mean competition ratio ([1]; 200 µM),log2 mean competition ratio ([2]; 50 µM),log2 mean competition ratio ([2]; 200 µM)
DGLUCY C265 (UniProt Q7Z3D6),-0.267,-0.0227,-0.128,-0.0955
DNAJC10 C270 (UniProt Q8IXB1),0.0121,0.108,0.0844,0.191
DNAJC13 C2110 (UniProt O75165),-0.14,0.0188,-0.406,-0.0912
DIPK2A C236 (UniProt Q8NDZ4),-0.154,0.288,-0.121,0.139
DICER1 C1122 (UniProt Q9UPY3),-0.259,0.275,0.0748,0.247
DOCK11 C903,-0.0114,-0.0531,-0.206,-0.163
DNAJB4 C175 (UniProt Q9UDY4),-0.383,-0.115,-0.426,-0.0537
DPYSL2 C248 (UniProt Q16555),-0.034,0.141,0.504,-0.0628
DIS3 C194 (UniProt Q9Y2L1),-0.114,-0.14,0.0521,0.0963
DNAJC1 C535 (UniProt Q96KC8),-0.143,0.157,-0.149,0.175
DNAAF2 C508 (UniProt Q9NVR5),-0.185,0.0313,-0.132,-0.0311
DNMBP C327 (UniProt Q6XZF7),-0.27,0.379,-0.349,-0.0904
DNM2 C86 (UniProt P50570),-0.00559,0.132,-0.181,-0.0291
DENND4C C763 (UniProt Q5VZ89),0.165,-0.138,-0.129,-0.0594
DNAJC13 C884 (UniProt O75165),-0.132,0.0967,-0.125,-0.0782
DOCK4 C1723,0.0886,-0.0966,0.223,-0.109
DEPTOR C247,0.224,-0.169,0.153,0.13
DHX29 C1245 (UniProt Q7Z478),0.0277,-0.103,-0.206,-0.0839
DISC1 C239,0.0131,-0.0697,-0.399,0.202
DIP2B C592 (UniProt Q9P265),0.212,-0.138,-0.0297,-0.0649
DIXDC1 C217,-0.046,-0.164,-0.0635,-0.155
DNMBP C125 (UniProt Q6XZF7),0.108,-0.196,0.267,-0.142
DNA2 C478 (UniProt P51530),0.105,0.148,-0.369,-0.143
DOCK11 C1906,0.00923,-0.0579,-0.239,-0.279

# Part of the list above, reformatted:
Target | log2 mean competition ratio ([1]; 50 µM) | log2 mean competition ratio ([1]; 200 µM) | log2 mean competition ratio ([2]; 50 µM) | log2 mean competition ratio ([2]; 200 µM)
DENND4C C763 (UniProt Q5VZ89) | 0.165 | -0.138 | -0.129 | -0.0594
DNAJC13 C884 (UniProt O75165) | -0.132 | 0.0967 | -0.125 | -0.0782
DOCK4 C1723 | 0.0886 | -0.0966 | 0.223 | -0.109
DEPTOR C247 | 0.224 | -0.169 | 0.153 | 0.13
DHX29 C1245 (UniProt Q7Z478) | 0.0277 | -0.103 | -0.206 | -0.0839
DISC1 C239 | 0.0131 | -0.0697 | -0.399 | 0.202
DIP2B C592 (UniProt Q9P265) | 0.212 | -0.138 | -0.0297 | -0.0649
DIXDC1 C217 | -0.046 | -0.164 | -0.0635 | -0.155
DNMBP C125 (UniProt Q6XZF7) | 0.108 | -0.196 | 0.267 | -0.142
DNA2 C478 (UniProt P51530) | 0.105 | 0.148 | -0.369 | -0.143
DOCK11 C1906 | 0.00923 | -0.0579 | -0.239 | -0.279

# (cont.)

Target,log2 mean competition ratio ([1]; 50 µM),log2 mean competition ratio ([1]; 200 µM),log2 mean competition ratio ([2]; 50 µM),log2 mean competition ratio ([2]; 200 µM)
DHX29 C784 (UniProt Q7Z478),-0.23,0.0227,0.0301,0.0859
DHX40 C33 (UniProt Q8IX18),-0.0423,0.0907,-0.306,0.0768
DLG5 C1816 (UniProt Q8TDM6),0.253,0.387,-0.697,0.317
DPM3 C67 (UniProt Q9P2X0),0.133,0.0783,0.0272,-0.0272
DHRS13 C28 (UniProt Q6UX07),-0.102,0.228,-0.253,0.234
DOHH C232 (UniProt Q9BU89),-0.0877,0.237,-0.000583,0.258
DOK1 C389 (UniProt Q99704),0.247,-0.115,0.218,0.0647
DNMT1 C1191 (UniProt P26358),-0.442,-0.18,-0.389,-0.364
DENND4C C1113 (UniProt Q5VZ89),0.203,0.00227,-0.464,0.107
DNAAF2 C380 (UniProt Q9NVR5),-0.318,0.212,-0.284,-0.256
DNMT1 C62 (UniProt P26358),0.489,-0.189,0.583,0.00346
DOCK6 C1853 (UniProt Q96HP0),-0.205,-0.553,0.0171,-0.0319
DNAJC7 C337 (UniProt Q99615),0.0852,0.0766,0.436,0.0245
DLC1 C1504 (UniProt Q96QB1),-0.32,-0.0682,-0.264,0.111
DIPK1A C347 (UniProt Q5T7M9),0.0568,0.175,-0.291,0.28
DNM1L C361 (UniProt O00429),-0.0481,-0.0905,-0.34,0.0203
DHX37 C680 (UniProt Q8IY37),0.0691,0.0721,0.0604,-0.0221
DGAT1 C218 (UniProt O75907),-0.0461,0.0827,0.148,0.29
DHX34 C500 (UniProt Q14147),0.0484,0.202,0.133,0.194
DNAJC10 C186 (UniProt Q8IXB1),-0.443,-0.402,-0.374,-0.189
DOT1L C1075 (UniProt Q8TEK3),-0.125,0.0325,-0.284,-0.0691
DFFA C21 (UniProt O00273),0.0994,-0.506,0.579,-0.265
DHX9 C469 (UniProt Q08211),-0.0832,-0.117,0.272,0.0458
DHX40 C641 (UniProt Q8IX18),-0.00604,0.0882,-0.0853,0.11
